Experimental data: patent EP2077260B1, “AMIDE COMPOUND OR SALT THEREOF, AND BIOFILM FORMATION INHIBITOR, BIOFILM REMOVER AND BACTERICIDE EACH USING THE AMIDE COMPOUND OR SALT THEREOF” (The University of Tokyo, priority 2006, dated 2008)
At least one structure is not confirmed: it was looked up by name or label, or the drawing left a doubt. Some compounds share one wording; it may come from a single statement. Some of these results come from one statement about several compounds together.

Tests used:
[1] = tested on: Pseudomonas aeruginosa (gfp expression PAO1-strain); assay: Evaluation test for biofilm removal effect with respect to Pseudomonas aeruginosa (flow cell system); format: cell-based; conditions: test liquid 100µM; observed after 3 to 10 days
[2] = tested on: Pseudomonas aeruginosa (gfp expression PAO1-strain); assay: Evaluation test for biofilm formation inhibition effect against Pseudomonas aeruginosa (flow cell system, fluorescence confocal microscope); format: cell-based; conditions: observed up to 84 hours, compared with control test liquid (huge, thick biofilm)
Experimental: With the flow cell system shown in FIG. 1, an inhibitory effect against biofilm formation by Pseudomonas aeruginosa was evaluated for each of the amide compounds produced in Production Examples 1, 3, 5, 6 and 7 (Compounds 1a-1, 1b-1, 1c-1, 1c-2, 1d-1), and for each of Comparative Compounds (Comparative Example) 1 to 3 denoted by the following formulas. [drawing 20] [drawing 21] [drawing 22]
A culture medium bottle (1), a peristaltic pump (2), a glass cell (4) and a waste fluid bottle (5) are connected via a silicon tube (6) so that a culture medium (9) is supplied to the glass cell (4) from the culture medium bottle (1) using the peristaltic pump (2). The system includes an air removal section (3) between the peristaltic pump (2) and a turncock (7a), for removing the entrained air. All instruments in the flow cell system are sterilized using gamma-rays or an autoclave.
As specifically described later, the inhibitory effect against biofilm formation of each of the amide compounds is examined in the following manner.. Bacteria are cultured in a glass cell (4) to grow a biofilm on the inner wall of the cell, and a test liquid containing one of the amide compounds is applied to the biofilm. Then the state of the biofilm is observed to evaluate the inhibitory effect against biofilm formation of the compound using a fluorescence confocal microscope (Leica TCS SP2: product of Leica).
The bacteria was prepared by inserting a pTdk-LVAgfp plasmid into a Pseudomonas aeruginosa PA01-strain using the electroportion method so that the Pseudomonas aeruginosa PAO1-strain is transformed to express Green Fluorescent Protein (hereinafter referred to as "gfp expression PAO1-strain") (see Teresa R. et al., Applied and Environmental Microbiology, Apr. 2001, p.1865-1873).
A 30mM glucose-containing FAB culture medium was used for preincubation, and a 0.3mM glucose-containing FAB culture medium was used for main cultivation,
The glucose-containing FAB culture medium was prepared by adding 200µg/mL of carbenicillin to an aqueous solution containing 30mM glucose or 0.3mM glucose, 15mM ammonium sulfate, 33.7mM disodium hydrogenphosphate dihydrate, 22.1mM potassium dihydrogen phosphate, 51.7mM sodium chloride, 0.47mM magnesium chloride, 0.08mM calcium chloride and the following 0.1% trace metal solution.
An aqueous solution containing 1.16mM calcium sulfate dihydrate, 0.72mM iron sulfate heptahydrate, 0.08mM manganous sulfate monohydrate, 0.08mM copper sulfate pentahydrate, 0 07mM zinc sulfate heptahydrate, 0.04mM cobalt sulfate heptahydrate, 0.04mM sodium permanganate monohydrate, and 0.08mM boric acid.
A gfp expression PAO1-strain was inoculated in a 30mM glucose-containing FAB culture medium, and was subjected to shake culture at 37°C in an isothermal tank overnight.. […]

SMILES | state of biofilm removal (disappearance of the deposited biofilm) [1] | state of biofilm formation ([2]; test liquid 250µM) | state of biofilm formation ([2]; test liquid 100µM) | course of the biofilm over time [1]
CCCCCCCCCC(=O)CC(=O)Nc1ccccc1O [Comparative Compound 1, reference compound] | such disappearance of biofilm was not observed | – | – | –
CCCCCCCCCCCC(=O)NC1CCNC1 (centres unmarked) [Compound 1a-1, N-(pyrrolidin-3-yl) dodecanoyl amide] | the gradual disappearance of the deposited biofilm with time was observed | such biofilm formation was not observed | – | –
CCCCCCCCCCCC(=O)NC1CCNCC1 [Compound 1b-1, N-(piperidin-4-yl) dodecanoyl amide] | the gradual disappearance of the deposited biofilm with time was observed | such biofilm formation was not observed | – | –
CCCCCCCCCCCC(=O)NN1CCCC1 [Compound 1c-1, N-(pyrrolidin-1-yl) dodecanoyl amide] | the gradual disappearance of the deposited biofilm with time was observed | – | such biofilm formation was not observed | the biofilm was first reduced and then increased again after a six-day cultivation, before it reduced again until it disappeared
CCCCCCCCCC(O)CC(=O)NN1CCCC1 (centres unmarked) [Compound 1c-2, N-(pyrrolidin-1-yl)-3-hydroxy dodecanoyl amide] | the gradual disappearance of the deposited biofilm with time was observed | – | such biofilm formation was not observed | the biofilm was first reduced and then increased again after a six-day cultivation, before it reduced again until it disappeared
